Results: PubChem BioAssay AID2685 (National Center for Advancing Translational Sciences (NCATS), 2010)
The list shows a part of the results. These are further read-outs of the screen, such as a control signal, another cell line or another target. No call is given for them. Compounds called inactive in the main read-out are mostly missing here. Words in brackets tell the shape of the fitted curve; partial curves, single points and poor fits give uncertain potencies.

Assay: qHTS Assay for Lipid Storage Modulators in Drosophila S3 Cells;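 as to cell number change: cells counted by Cell Tracker Red CMTPX staining in the red channel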
Details: BODIPY lipid droplet fluorescence, 18-24 h; for cell number change: measured here: cell count max response, cells fed with added oleic acid
Procedure, shortened: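 Drosophila S3 cells loaded with oleic acid (400 uM, as added) and compounds at several concentrations; lipid droplets imaged by 488-nm laser-scanning cytometry, 500–530 nm intensity and object ratio to cell channel. Percent activity normalized to 20 uM Triacsin C.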

[1] = measured here: cell number channel AC50, cells fed with added oleic acid
[2] = measured here: lipid fluorescence (Fed channel) AC50, cells fed with added oleic acid

SMILES	AC50 [1]	cell number change	AC50 [2]
COC(=O)c1cccc(NC(=O)CCNC(=O)c2ccc([N+](=O)[O-])cc2)c1	0.0731 µM [rising, full curve, poor fit]		
COc1ccc(N(C(=O)c2ccc(Cl)cc2)C2=CC3CCC(C2)N3C)cc1 (stereo unspecified)		2.49%	3.66 µM [falling, single point]
CC(NS(=O)(=O)c1ccc(F)cc1)C(=O)Nc1ccc2c(c1)OCCO2 (stereo unspecified)		-16.8%	29.1 µM [falling, single point]
O=C(NCc1ccc(F)cc1)c1cc(-c2ccncc2)nc2ccccc12		16.2%	0.651 µM [rising, partial curve, poor fit]
CCOc1ccc(C(=S)NC2CCCCC2)cc1		-30%	16.4 µM [falling, partial curve, poor fit]
Cc1nc(-c2ccc(F)cc2)c(CC(=O)N2CCN(S(=O)(=O)c3cccc(Cl)c3)CC2)s1	3.26 µM [rising, single point]		
O=C(Nc1ccc2nc(-c3ccco3)[nH]c2c1)c1ccco1	6.51 µM [rising, single point]	4.84%	16.4 µM [falling, partial curve, poor fit]
CCC(C)(C)C(=O)O		-27.5%	0.13 µM [rising, full curve, poor fit]
Cc1ccc(Cl)cc1N1CCN(C(=O)Cn2ncn3cccc3c2=O)CC1		14.4%	3.26 µM [rising, partial curve]
COc1cccc(/C=N/NC(=O)C(=O)NCc2ccco2)c1OC	0.13 µM [falling, full curve]	15.9%	0.184 µM [falling, full curve]
CN(CC(=O)NCCc1ccc(S(N)(=O)=O)cc1)S(=O)(=O)/C=C/c1ccccc1		-7.92%	
CCNC(=S)Nc1ccc(C)c(Cl)c1	3.26 µM [rising, partial curve]	36.5%	6.51 µM [rising, partial curve]
O=C(CSc1nc(C(F)(F)F)cc(=O)[nH]1)N1CCOCC1		-22%	20.6 µM [falling, single point]
O=C(COC(=O)C1CC1)Nc1ccc(OC(F)F)cc1		16.8%	
CC(C)=CC1C(C(=O)Nc2ccc(S(=O)(=O)N3CCOCC3)cc2)C1(C)C (stereo unspecified)	16.4 µM [falling, single point]	-45.3%	29.1 µM [falling, single point]
Cn1c(=O)c2c(nc(CN3CCN(C(=O)c4ccco4)CC3)n2Cc2ccc(Cl)cc2)n(C)c1=O	0.259 µM [rising, partial curve, poor fit]	2.9%	
CCCc1nnc(NC(=O)CCC(=O)N2CCN(S(=O)(=O)c3ccc(C)cc3)CC2)s1	2.06 µM [falling, full curve]	-30.7%	1.84 µM [falling, full curve]
Nc1nnnn1/N=C/c1ccc(Br)cc1		13.2%	29.1 µM [rising, single point]
CC(=O)COc1ccccc1OC(=O)c1ccco1		14%	14.6 µM [rising, single point]
O=c1[nH]cccc1-c1nc2cc(Cl)ccc2n1Cc1ccccc1		-3.55%	

SMILES	AC50 [1]	cell number change	AC50 [2]
CNC(=S)Nc1ccc(C)c(NC(=S)NC)c1		-9.89%	0.326 µM [falling, partial curve, poor fit]
COc1ccccc1CC(=O)Nc1ccc(S(=O)(=O)N(C)C2CCN(C)CC2)cc1		22.6%	0.82 µM [rising, full curve, poor fit]
CC(NC(=O)CCl)c1ccccc1Br (stereo unspecified)		-9.34%	3.26 µM [falling, partial curve]
O=C(c1cccnc1)n1nc(-c2ccco2)nc1NCc1cccs1	8.91 µM [rising, partial curve]	37.9%	7.94 µM [rising, partial curve, poor fit]
O=C(Nc1ccc(-c2cnco2)cc1)c1ccccc1	0.461 µM [rising, full curve, poor fit]	21.8%	0.00461 µM [rising, full curve, poor fit]
CN(C)c1cccc(C(=O)N(C)C2CCCN(Cc3ccccc3F)C2)c1 (stereo unspecified)		-4.67%	29.1 µM [rising, single point]
CC(C)C(=O)NC(=S)Nc1ccccc1N1CCN(C(=O)c2ccc(Cl)cc2)CC1	8.2 µM [falling, partial curve]	-66.8%	6.51 µM [falling, partial curve]
CCC(CC)C(=O)c1c[nH]c(C(=O)NCCCn2ccnc2)c1	6.51 µM [falling, single point]	-0.234%	
COCCCn1[nH]c2c3c(ccc2c1=O)C(=O)c1ccccc1C3=O		-16%	20.6 µM [rising, partial curve]
CN1CCN(C(=O)c2cc3c(s2)-c2ccccc2S(=O)(=O)C3)CC1	2.31 µM [rising, partial curve]	54.8%	0.92 µM [rising, partial curve]
Cc1cc(NC(C)c2ccccc2)n2ncc(-c3ccccc3)c2n1 (stereo unspecified)		13.1%	5.8 µM [rising, partial curve]
CCOC(=O)N1CCN(C(=O)c2c(Cl)cnn2C)CC1		-5.95%	29.1 µM [rising, single point]
CC(Oc1ccc2c(c1)c1ccnc3c4ccccc4c(=O)n2c13)C(=O)NCCN1CCOCC1 (stereo unspecified)		-7.12%	0.651 µM [falling, full curve, poor fit]
CN(C)S(=O)(=O)c1ccc(NC(=O)N2CCN(c3cccc(C(F)(F)F)c3)CC2)cc1			29.1 µM [falling, single point]
O=C(NCC1CCCO1)C1CCCN(S(=O)(=O)c2cc(Cl)ccc2Cl)C1 (stereo unspecified)		16.9%	0.112 µM [rising, full curve, poor fit]
CC1CN(S(=O)(=O)c2ccc(NC(=O)c3ccco3)cc2)CC(C)O1 (stereo unspecified)	5.17 µM [rising, single point]		
COc1cc(OC)cc(C(=O)NCC(=O)Nc2ccc(C)c(Cl)c2)c1		-4.17%	0.58 µM [rising, single point]
CCOC(=O)c1ccc(NC(=O)Nc2cc(C)cc(C)n2)cc1		23.7%	14.6 µM [rising, single point]
CN(Cc1cccs1)C(=O)c1cc(S(=O)(=O)N2CCOCC2)ccc1N1CCCC1		-2.77%	5.8 µM [rising, partial curve]
Clc1nc(CN2CCOCC2)nc2sc3c(c12)CCC3		20.9%	

Some of the entries so far, as labelled records.
CC(NC(=O)CCl)c1ccccc1Br (stereo unspecified)
  cell number change: -9.34%
  AC50 [2]: 3.26 µM [falling, partial curve]
O=C(Nc1ccc(-c2cnco2)cc1)c1ccccc1
  AC50 [1]: 0.461 µM [rising, full curve, poor fit]
  cell number change: 21.8%
  AC50 [2]: 0.00461 µM [rising, full curve, poor fit]
CCOC(=O)N1CCN(C(=O)c2c(Cl)cnn2C)CC1
  cell number change: -5.95%
  AC50 [2]: 29.1 µM [rising, single point]
COc1cc(OC)cc(C(=O)NCC(=O)Nc2ccc(C)c(Cl)c2)c1
  cell number change: -4.17%
  AC50 [2]: 0.58 µM [rising, single point]

Additional results follow.

SMILES	AC50 [1]	cell number change	AC50 [2]
Cc1cccc(-c2noc(CCC(=O)NCc3ccco3)n2)c1		-7.34%	16.4 µM [falling, partial curve]
CCOC(=O)c1[nH]c(C)c(C(=O)NCc2ccc(OC)cc2)c1C		14.3%	0.58 µM [rising, single point]
CCOC(=O)C1=C(C)N(C)C(=O)NC1c1ccc2c(c1)OCO2 (stereo unspecified)		20.2%	0.731 µM [rising, partial curve, poor fit]
CCn1c(SCC(=O)c2c[nH]c3ccccc23)nc2cc(S(=O)(=O)N3CCOCC3)ccc21		12.1%	2.06 µM [rising, partial curve]
Cc1n[nH]c(=O)n1-c1ccc(C(C)(C)C)cc1			0.0058 µM [rising, full curve, poor fit]
Cc1[nH]nc(N=CC2=C(O)CC(C)(C)CC2=O)c1-c1ccccc1	29.1 µM [rising, single point]	48.9%	29.1 µM [rising, single point]
O=C(CCl)NC(Cc1c[nH]c2ccc(OCc3ccccc3)cc12)C(=O)O (stereo unspecified)		-12.6%	29.1 µM [rising, single point]
O=C(CCCN1C(=O)/C(=C/c2ccccc2)SC1=S)Nc1ccccc1O	0.00461 µM [rising, full curve, poor fit]		
CN1CCc2c(sc(NC(=O)CS(=O)(=O)c3ccc(F)cc3)c2C(N)=O)C1		18.5%	
O=[N+]([O-])c1ccc([C@H](O)[C@H](CO)N=Cc2ccccc2O)cc1	0.0092 µM [falling, full curve, poor fit]	-21.5%	0.146 µM [falling, full curve]
CCCCc1nc(SCC(=O)Nc2ccc(S(N)(=O)=O)cc2)n[nH]1		-25.3%	2.06 µM [falling, full curve]
COCCN(CCOC)C(=O)CN1C(=O)NC2(CCCc3sccc32)C1=O (stereo unspecified)		20.2%	3.26 µM [falling, full curve, poor fit]
CC(C)CN(CC(C)C)C1=N/C(=C\c2ccco2)C(=O)N1c1ccccc1	0.0651 µM [rising, full curve, poor fit]	43.8%	
NC(=O)COc1ccccc1C(=O)NC12CC3CC(CC(C3)C1)C2		11.3%	23.1 µM [falling, single point]
CCCCc1ccc(-c2nc(NC(=O)C3C4CCC(O4)C3C(=O)O)sc2C)cc1 (stereo unspecified)	29.1 µM [falling, single point]	-58.8%	3.26 µM [falling, partial curve]
COc1cc(SC)ccc1C(=O)OCC(=O)NCCNC(=O)COC(=O)c1ccc(SC)cc1OC	3.26 µM [rising, partial curve, poor fit]		11.6 µM [falling, single point]
Cc1cccc(NS(=O)(=O)c2c(C)n[nH]c2C)c1		19.7%	
O=[N+]([O-])c1cc(C(F)(F)F)ccc1N1CCCC(O)C1 (stereo unspecified)	4.11 µM [falling, single point]	-52.1%	
